Chains of the proteins cited; added tags and fusions are not shown.
UniProt Q3U1J4: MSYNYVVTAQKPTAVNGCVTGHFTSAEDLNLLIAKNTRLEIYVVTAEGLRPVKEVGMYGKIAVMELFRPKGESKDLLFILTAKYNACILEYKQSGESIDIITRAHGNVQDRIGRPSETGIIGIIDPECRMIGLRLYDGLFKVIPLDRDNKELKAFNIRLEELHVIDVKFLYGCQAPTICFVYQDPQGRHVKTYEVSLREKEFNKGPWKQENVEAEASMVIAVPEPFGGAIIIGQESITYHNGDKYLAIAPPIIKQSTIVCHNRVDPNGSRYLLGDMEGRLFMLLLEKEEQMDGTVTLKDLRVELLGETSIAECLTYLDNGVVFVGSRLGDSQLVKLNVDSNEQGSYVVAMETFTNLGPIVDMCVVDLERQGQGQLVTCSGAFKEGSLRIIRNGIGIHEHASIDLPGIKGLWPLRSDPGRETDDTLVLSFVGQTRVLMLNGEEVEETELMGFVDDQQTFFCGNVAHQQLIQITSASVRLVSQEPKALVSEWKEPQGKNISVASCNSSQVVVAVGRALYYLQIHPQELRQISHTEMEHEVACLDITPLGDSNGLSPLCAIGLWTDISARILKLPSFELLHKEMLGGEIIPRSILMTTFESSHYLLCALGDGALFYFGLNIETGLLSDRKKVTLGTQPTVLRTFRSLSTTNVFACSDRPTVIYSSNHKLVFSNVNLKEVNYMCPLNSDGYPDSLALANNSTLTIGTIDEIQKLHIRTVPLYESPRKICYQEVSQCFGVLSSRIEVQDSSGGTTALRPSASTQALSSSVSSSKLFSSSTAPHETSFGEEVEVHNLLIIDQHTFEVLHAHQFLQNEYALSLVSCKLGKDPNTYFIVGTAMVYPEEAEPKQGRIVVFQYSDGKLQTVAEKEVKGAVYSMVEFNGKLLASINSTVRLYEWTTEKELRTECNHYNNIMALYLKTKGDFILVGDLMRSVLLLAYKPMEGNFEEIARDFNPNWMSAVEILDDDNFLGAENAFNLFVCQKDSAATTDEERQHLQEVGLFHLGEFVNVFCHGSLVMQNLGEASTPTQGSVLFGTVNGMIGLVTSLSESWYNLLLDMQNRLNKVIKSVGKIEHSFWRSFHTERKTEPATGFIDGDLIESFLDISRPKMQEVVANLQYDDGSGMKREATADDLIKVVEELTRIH
UniProt Q8N7N5: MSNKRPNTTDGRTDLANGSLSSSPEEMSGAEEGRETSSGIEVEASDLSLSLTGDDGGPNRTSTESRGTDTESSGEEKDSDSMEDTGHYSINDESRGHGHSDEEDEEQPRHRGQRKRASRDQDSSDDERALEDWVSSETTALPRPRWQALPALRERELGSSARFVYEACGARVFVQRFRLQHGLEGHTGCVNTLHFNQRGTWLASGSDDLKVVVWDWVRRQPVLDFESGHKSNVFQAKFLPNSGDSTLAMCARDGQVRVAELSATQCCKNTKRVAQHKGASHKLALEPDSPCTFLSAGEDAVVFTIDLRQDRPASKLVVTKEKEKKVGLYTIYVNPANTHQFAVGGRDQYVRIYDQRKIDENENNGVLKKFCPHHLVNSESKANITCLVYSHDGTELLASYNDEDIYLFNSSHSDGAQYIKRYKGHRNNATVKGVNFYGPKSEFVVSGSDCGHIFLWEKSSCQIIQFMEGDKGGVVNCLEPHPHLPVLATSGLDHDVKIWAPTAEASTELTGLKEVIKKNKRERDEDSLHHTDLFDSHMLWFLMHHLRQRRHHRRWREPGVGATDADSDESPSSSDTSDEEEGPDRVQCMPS
UniProt Q60974: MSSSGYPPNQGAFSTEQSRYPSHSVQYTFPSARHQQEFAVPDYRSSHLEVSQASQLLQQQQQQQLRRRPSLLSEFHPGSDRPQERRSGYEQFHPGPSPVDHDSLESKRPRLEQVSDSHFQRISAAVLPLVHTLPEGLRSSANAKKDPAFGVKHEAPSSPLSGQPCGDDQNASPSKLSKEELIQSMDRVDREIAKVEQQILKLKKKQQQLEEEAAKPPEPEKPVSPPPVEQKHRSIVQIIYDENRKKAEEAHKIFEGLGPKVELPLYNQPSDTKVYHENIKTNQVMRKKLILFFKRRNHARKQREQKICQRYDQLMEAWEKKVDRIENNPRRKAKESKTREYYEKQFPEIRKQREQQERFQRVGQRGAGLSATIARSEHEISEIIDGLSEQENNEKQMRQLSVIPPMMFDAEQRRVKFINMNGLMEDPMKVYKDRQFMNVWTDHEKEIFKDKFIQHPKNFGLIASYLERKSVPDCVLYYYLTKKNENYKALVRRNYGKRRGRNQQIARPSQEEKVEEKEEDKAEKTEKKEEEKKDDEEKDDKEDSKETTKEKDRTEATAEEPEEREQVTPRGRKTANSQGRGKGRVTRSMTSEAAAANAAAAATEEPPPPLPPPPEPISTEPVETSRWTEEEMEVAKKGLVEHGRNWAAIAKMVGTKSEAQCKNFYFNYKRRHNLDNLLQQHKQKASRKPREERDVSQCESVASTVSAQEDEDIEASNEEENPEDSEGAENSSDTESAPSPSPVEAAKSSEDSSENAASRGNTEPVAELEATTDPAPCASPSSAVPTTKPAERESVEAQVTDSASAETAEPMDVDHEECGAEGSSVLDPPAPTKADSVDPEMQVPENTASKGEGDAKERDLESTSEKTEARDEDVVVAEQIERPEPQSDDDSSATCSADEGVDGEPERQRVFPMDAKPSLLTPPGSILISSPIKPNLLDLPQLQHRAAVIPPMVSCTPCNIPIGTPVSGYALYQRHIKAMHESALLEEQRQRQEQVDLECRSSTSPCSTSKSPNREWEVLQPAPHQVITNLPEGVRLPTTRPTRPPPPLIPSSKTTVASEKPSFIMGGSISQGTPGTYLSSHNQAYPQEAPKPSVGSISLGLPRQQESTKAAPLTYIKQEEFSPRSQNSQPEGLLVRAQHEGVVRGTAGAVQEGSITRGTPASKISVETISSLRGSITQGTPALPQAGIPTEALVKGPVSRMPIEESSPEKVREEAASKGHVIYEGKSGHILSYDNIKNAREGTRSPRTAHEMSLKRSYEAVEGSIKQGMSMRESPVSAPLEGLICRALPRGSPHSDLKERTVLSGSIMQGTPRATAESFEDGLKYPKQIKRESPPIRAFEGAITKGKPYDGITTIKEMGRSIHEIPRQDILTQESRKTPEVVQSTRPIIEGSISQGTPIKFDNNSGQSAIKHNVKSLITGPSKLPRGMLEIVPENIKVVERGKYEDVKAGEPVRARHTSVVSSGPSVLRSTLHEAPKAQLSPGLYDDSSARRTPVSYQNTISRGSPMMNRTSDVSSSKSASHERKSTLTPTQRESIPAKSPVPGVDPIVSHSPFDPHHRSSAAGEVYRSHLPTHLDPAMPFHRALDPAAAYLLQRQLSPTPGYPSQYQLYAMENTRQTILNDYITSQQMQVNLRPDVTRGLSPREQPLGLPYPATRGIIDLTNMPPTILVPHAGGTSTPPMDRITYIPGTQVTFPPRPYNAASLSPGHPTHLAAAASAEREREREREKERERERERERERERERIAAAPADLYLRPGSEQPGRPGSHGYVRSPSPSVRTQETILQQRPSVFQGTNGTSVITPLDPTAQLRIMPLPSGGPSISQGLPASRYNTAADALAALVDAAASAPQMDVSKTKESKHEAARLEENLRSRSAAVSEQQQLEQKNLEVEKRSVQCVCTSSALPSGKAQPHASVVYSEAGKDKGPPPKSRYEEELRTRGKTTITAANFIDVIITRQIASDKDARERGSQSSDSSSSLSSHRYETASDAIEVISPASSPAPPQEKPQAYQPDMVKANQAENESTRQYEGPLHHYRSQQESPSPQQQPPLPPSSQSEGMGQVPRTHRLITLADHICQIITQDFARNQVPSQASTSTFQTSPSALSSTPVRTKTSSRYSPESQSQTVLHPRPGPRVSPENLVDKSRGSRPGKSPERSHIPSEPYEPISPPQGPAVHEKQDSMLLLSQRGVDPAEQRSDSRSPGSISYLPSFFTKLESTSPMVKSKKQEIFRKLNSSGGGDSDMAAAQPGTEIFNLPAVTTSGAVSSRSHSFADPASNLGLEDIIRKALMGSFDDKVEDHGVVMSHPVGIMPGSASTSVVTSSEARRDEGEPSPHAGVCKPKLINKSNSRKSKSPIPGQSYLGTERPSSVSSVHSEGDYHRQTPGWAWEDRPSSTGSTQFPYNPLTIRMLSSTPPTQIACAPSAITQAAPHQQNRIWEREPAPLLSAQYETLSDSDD

According to article PMC7545708, “The small molecule PSSM0332 disassociates the CRL4A^DCAF8 E3 ligase complex to decrease the ubiquitination of NcoR1 and inhibit the inflammatory response in a mouse sepsis-induced myocardial dysfunction model” (International Journal of Biological Sciences, 2020):

What was measured:
[1] = molecular target: DDB1 (DNA damage-binding protein 1), endogenous in mouse heart tissue (mouse (endogenous in heart tissue)) (UniProt Q3U1J4); experiment: affinity purification with mass spectrometry; SIMD mouse heart tissues (n=3, mixed) in RIPA buffer; IP with anti-DDB1 or anti-DCAF8 coupled protein A beads; SDS-PAGE, silver stain, bands cut, trypsin, mass spectrometry
[2] = molecular target: DCAF8 (DDB1 and CUL4 associated factor 8), endogenous in mouse heart tissue (mouse (endogenous in heart tissue)) (UniProt Q8N7N5); experiment: as above

Substance | binding [1] | binding [2]
DCAF8 (DDB1 and CUL4 associated factor 8), endogenous in mouse heart tissue (from UniProt Q8N7N5 1-591) | binds | 
NcoR1 (nuclear receptor corepressor 1), endogenous in mouse heart tissue (from UniProt Q60974 1-2453) |  | binds

No constants are given. Whether binding was seen depends on the method and setting. Binding seen in cells or lysates may run through a third protein. These calls come from enrichment with a bait or labelling near it, and not all partners need be listed.
